# PubChem BioAssay AID504648 (National Center for Advancing Translational Sciences (NCATS), 2011)
# The whole screen tested about 390,000 compounds, of which about 610 (0.16%) were called active. Inconclusive means that the source gave no clear call. Such entries were picked first, then a sample of the others. The call rests on the fitted dose curve; in most records, active means well fitted inhibition curve with a large enough effect; inconclusive means small, poorly fitted or top-dose-only effect, or effect the other way, or another doubt; inactive means no such curve, though single readings can be large or run the other way. Where the call is inconclusive, the potency comes from a doubtful curve fit.
# Test: Nrf2 qHTS screen for inhibitors: counterscreen for cytotoxicity
# Conditions: A549 ARE-Fluc cells, CellTiter-Fluor viability, 18-24 h; activity change, negative = cytotoxicity: at 46 µM (top of the series)
# How it was run: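 A549 ARE-Fluc cells in 5% FBS OPTI-MEM, 5000 cells/well, rested 2 h then exposed to compounds in concentration-response for 18-24 h at 37 °C. Viability by CellTiter-Fluor fluorescence (Ex 405/Em 525) after 30 min; luciferase luminescence (BugLite, 15 min, RT) read afterwards.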
# On the % scale 0 is the no-effect control and ±100 the full control effect; potency means the concentration at half of the fitted maximal effect.
SMILES,Potency,"activity change, negative = cytotoxicity"
CN(C)CCNC(=O)c1onc(CSc2ccc(F)cc2)c1C(=O)NCCN(C)C,"inconclusive: 5.8 µM [falling, partial curve]",–
CCOC(=O)CS(=O)(=O)c1nc(-c2ccc(F)cc2)cc(C(F)(F)F)n1,"inconclusive: 32.6 µM [falling, single point]",–
O=C(Nc1ccc(F)cc1F)N1CCN(c2ccc(Cl)c(Cl)c2)CC1,"inconclusive: 20.6 µM [falling, partial curve, poor fit]",–
Cc1ccc(C)c(-n2c3nc(=O)[nH]c(=O)c-3cc3cc([N+](=O)[O-])ccc32)c1,–,inactive: -21.5%
CC(=O)N1CCN(c2nc(-c3ccco3)c3c(c2C#N)CC(C)(C)SC3)CC1,–,inactive: -16.8%
Cn1c2cc(S(C)=O)sc2c2cnn(Cc3ccccc3F)c(=O)c21 (configuration not stated),–,inactive: 11.4%
COc1cc(/C=C2/C(=N)N3C(=NC2=O)SN=C3S(C)(=O)=O)ccc1OC(=O)c1ccco1,"inconclusive: 18.4 µM [falling, partial curve, poor fit]",–
NCCOc1ccccc1-c1ccccc1,"inconclusive: 13 µM [activator, partial curve, poor fit]",–
CC1=NN(C(N)=S)C(=O)C1N=Nc1cccc(C(=O)O)c1 (configuration not stated),"inconclusive: 25.9 µM [falling, partial curve, poor fit]",–
O=C(Cn1nnc(-c2ccc(F)cc2)n1)Nc1cccc(S(=O)(=O)N2CCCC2)c1,"inconclusive: 16.4 µM [falling, partial curve, poor fit]",–
CC1CC(C)CN(CCOCCSc2ccc(Cl)cc2)C1 (configuration not stated),"inconclusive: 14.6 µM [falling, partial curve, poor fit]",–
CC(N)=Nc1ccc([N+](=O)[O-])cc1,–,inactive: -2.19%
Cc1c(C(=O)Nc2nccs2)oc2ccc(Br)cc12,"inconclusive: 20.6 µM [falling, partial curve, poor fit]",–
O=C(Nc1ccc2oc(-c3ccccc3Cl)nc2c1)c1cncc(Br)c1,"inconclusive: 13 µM [falling, partial curve, poor fit]",–
CCN=C1SC(CC(=O)Nc2sc3c(c2C#N)CCCC3)C(=O)N1CC (configuration not stated),"inconclusive: 2.59 µM [activator, partial curve, poor fit]",–
CC(/C=N/O)Cc1ccc2c(c1)OCO2 (configuration not stated),"inconclusive: 25.9 µM [activator, partial curve, poor fit]",–
N#Cc1c(NC(=O)/C=C/C(=O)O)sc2c1CCN(Cc1ccccc1)C2,"inconclusive: 16.4 µM [activator, partial curve]",–
O=C(Nc1cccc(NC(=O)c2ccc(-c3ccc(Br)cc3)o2)c1)c1ccco1,"inconclusive: 16.4 µM [falling, partial curve, poor fit]",–
C[C@H](CO)N1C[C@H](C)[C@@H](CN(C)S(=O)(=O)c2ccccc2)Oc2ccc(NC(=O)C3CC3)cc2C1=O,–,inactive: -1.67%
C=C1C(=O)O[C@H]2C[C@]3(C)C([C@@H](OC(=O)/C(C)=C/C)[C@H]12)[C@](C)(O)CC[C@H]3O (some centres not stated),–,inactive: -23.5%
CCCCn1c(-c2ccsc2)nc2c1c(=O)[nH]c(=O)n2CCC,"inconclusive: 29.1 µM [falling, single point]",–

# Random excerpt: 2 compounds from above
SMILES,Potency,"activity change, negative = cytotoxicity"
Cn1c2cc(S(C)=O)sc2c2cnn(Cc3ccccc3F)c(=O)c21 (configuration not stated),–,inactive: 11.4%
CC1=NN(C(N)=S)C(=O)C1N=Nc1cccc(C(=O)O)c1 (configuration not stated),"inconclusive: 25.9 µM [falling, partial curve, poor fit]",–

# (cont.)

SMILES,Potency,"activity change, negative = cytotoxicity"
COC(=O)C1=CN(C(C)C)C=C(C(=O)OC)C1c1cccc(OC)c1,"inconclusive: 16.4 µM [activator, partial curve, poor fit]",–
C/C(=N\NC(=O)c1c[nH]c2ccccc12)c1ccccn1,"inconclusive: 9.2 µM [falling, partial curve, poor fit]",–
Cc1cnc(Nc2nc3ccccc3o2)nc1C(=O)Nc1cccc(C(F)(F)F)c1,"inconclusive: 18.4 µM [falling, single point]",–
COCCCNCCCOc1ccc(Cl)cc1C(C)(C)C,–,inactive: 3.36%
COc1ccc(Cl)c(N2CCN(CCCNC(=O)Nc3ccc(C)cc3)CC2)c1,"inconclusive: 25.9 µM [falling, single point]",–
C=C(C)C1CC=C(C)/C(=N\NC(=O)CNc2cccc3ccccc23)C1 (configuration not stated),"inconclusive: 16.4 µM [activator, partial curve, poor fit]",–
O=C(Cc1cccc(NC(=O)C2CCCN(C(=O)C3CC3)C2)c1)Nc1ccc(C(=O)N2CCCCC2)cc1 (configuration not stated),–,inactive: 3.17%
Cn1nnnc1Sc1ncnc2scc(-c3ccc(C#N)cc3)c12,"inconclusive: 29.1 µM [falling, single point]",–
O=C(c1ccccc1)N1CCN(c2ccc([N+](=O)[O-])c(NCc3ccco3)c2)CC1,"inconclusive: 29.1 µM [falling, single point]",–
CCC1(OC(=O)CN(C)C)C(=O)OCc2c1cc1n(c2=O)Cc2cc3c(N)cccc3nc2-1 (configuration not stated),"inconclusive: 13 µM [falling, partial curve]",–
COC(=O)c1ccc(NC(=O)c2nc(S(=O)(=O)Cc3cccc(C)c3)ncc2Cl)cc1,"inconclusive: 18.4 µM [falling, partial curve, poor fit]",–
CN1C(=O)Cc2cc([S+](=O)([O-])N3CCN([S+](=O)([O-])c4c(F)cccc4F)CC3)ccc21,–,inactive: -7.66%
O=C(NC(NC(=S)Nc1cccc(C(=O)O)c1)C(Cl)(Cl)Cl)OCc1ccccc1 (configuration not stated),–,inactive: 9.27%
CCc1cn([C@H]2C[C@H](O)[C@@H](CO)O2)c(=O)[nH]c1=O,–,inactive: 1.2%
COCCNC(=O)CCCn1c(SCC(=O)Nc2cccc(C)c2)nc2c(sc3ccccc32)c1=O,–,inactive: -4.97%
COc1ccc(N2CCN(C(c3ccccc3)c3nnc(-c4ccccc4Cl)o3)CC2)cc1 (configuration not stated),–,inactive: -0.294%
CC(=O)NN1C(=O)/C(=C\c2ccc(Br)o2)SC1=S,–,inactive: -6.81%
O=C(C1CC1)N1CCc2cc(S(=O)(=O)N3CCCc4ccccc43)ccc21,"inconclusive: 20.6 µM [falling, single point]",–
Cc1cccc(NC(=O)c2ccc(OCC3CCCO3)cc2)c1C (configuration not stated),–,inactive: -5.53%
O=[N+]([O-])c1ccc2[nH]cc(S(=O)(=O)N3CCN(c4cccc(Cl)c4)CC3)c2c1,"inconclusive: 23.1 µM [falling, single point]",–
CCN(CCO)c1ccc(N=Nc2cc(C)[nH]n2)cc1,active: 9.2 µM,–
